According to the supplement of paper PMC12819154, “High-throughput peptide-centric local stability assay extends protein–ligand identification to membrane proteins, tissues and bacteria” (Nature Structural & Molecular Biology, 2025):
The other results are listed elsewhere or left out. Small differences around the control level are noise.

Protein sequences, listed by entry. Tags and fused reporters are not part of them. Lines headed by an entry give the natural chain unless they say otherwise; changes in a name come on top.
UniProt Q13206, whole entry: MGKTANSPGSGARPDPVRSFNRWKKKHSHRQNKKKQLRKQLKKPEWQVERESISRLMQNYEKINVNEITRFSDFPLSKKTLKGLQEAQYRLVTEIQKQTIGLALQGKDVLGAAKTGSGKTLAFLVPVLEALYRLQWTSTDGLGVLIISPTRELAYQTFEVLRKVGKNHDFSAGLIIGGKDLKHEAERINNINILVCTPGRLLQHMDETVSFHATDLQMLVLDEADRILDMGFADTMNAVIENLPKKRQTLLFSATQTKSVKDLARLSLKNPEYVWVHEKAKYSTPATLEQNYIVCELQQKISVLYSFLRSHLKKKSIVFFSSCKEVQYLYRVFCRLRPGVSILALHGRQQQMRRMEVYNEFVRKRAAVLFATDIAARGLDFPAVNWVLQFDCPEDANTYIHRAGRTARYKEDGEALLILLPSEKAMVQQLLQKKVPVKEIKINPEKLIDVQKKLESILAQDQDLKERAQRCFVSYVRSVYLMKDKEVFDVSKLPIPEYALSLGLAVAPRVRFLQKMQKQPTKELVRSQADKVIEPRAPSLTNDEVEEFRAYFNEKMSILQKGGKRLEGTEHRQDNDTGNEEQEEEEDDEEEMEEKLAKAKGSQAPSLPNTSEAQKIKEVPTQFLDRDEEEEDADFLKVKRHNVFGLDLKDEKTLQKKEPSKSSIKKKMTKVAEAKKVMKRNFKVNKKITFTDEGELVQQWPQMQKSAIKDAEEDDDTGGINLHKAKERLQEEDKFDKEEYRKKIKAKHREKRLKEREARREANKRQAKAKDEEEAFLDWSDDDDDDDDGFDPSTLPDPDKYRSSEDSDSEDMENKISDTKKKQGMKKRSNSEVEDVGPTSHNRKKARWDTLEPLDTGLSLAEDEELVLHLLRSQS
UniProt Q13395: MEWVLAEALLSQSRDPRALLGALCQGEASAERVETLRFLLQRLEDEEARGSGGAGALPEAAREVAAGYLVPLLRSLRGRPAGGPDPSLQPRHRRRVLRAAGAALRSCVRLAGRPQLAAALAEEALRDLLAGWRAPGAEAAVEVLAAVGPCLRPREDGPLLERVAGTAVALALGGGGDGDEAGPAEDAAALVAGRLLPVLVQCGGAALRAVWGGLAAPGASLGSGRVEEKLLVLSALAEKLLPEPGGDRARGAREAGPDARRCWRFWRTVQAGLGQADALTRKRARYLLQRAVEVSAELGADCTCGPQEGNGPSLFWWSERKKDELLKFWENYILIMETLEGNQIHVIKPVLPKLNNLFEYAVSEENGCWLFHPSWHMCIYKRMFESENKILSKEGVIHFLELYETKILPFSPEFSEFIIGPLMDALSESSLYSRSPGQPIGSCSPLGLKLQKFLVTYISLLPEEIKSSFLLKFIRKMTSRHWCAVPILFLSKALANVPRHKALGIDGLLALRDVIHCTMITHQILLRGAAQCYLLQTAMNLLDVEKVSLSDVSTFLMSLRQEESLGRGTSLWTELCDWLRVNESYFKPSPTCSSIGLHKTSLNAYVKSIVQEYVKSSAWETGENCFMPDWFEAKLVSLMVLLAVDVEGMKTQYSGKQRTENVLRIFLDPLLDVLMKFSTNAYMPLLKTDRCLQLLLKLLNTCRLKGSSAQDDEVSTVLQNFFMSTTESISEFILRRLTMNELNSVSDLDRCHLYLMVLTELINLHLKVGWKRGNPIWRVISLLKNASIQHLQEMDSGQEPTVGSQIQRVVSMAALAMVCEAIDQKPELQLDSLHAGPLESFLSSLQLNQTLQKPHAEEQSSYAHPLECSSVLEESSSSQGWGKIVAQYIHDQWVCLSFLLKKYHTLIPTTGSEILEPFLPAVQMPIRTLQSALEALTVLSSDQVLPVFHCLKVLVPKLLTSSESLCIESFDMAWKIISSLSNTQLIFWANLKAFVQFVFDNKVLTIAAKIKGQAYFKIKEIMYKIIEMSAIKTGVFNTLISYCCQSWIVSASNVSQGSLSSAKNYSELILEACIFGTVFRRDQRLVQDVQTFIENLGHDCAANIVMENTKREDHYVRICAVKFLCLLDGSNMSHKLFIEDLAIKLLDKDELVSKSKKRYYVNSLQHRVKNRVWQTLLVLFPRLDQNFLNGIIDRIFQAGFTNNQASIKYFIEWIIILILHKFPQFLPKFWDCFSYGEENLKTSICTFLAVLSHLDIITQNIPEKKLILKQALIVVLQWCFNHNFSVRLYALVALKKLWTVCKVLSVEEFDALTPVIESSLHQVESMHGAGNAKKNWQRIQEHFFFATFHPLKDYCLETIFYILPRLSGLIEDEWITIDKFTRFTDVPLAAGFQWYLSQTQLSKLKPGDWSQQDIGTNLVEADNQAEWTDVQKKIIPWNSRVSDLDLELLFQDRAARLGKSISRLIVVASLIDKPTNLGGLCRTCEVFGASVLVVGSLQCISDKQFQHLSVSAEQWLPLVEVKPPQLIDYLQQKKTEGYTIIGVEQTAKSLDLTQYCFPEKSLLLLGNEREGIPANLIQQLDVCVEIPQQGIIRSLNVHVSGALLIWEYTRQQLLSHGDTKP
UniProt Q13342: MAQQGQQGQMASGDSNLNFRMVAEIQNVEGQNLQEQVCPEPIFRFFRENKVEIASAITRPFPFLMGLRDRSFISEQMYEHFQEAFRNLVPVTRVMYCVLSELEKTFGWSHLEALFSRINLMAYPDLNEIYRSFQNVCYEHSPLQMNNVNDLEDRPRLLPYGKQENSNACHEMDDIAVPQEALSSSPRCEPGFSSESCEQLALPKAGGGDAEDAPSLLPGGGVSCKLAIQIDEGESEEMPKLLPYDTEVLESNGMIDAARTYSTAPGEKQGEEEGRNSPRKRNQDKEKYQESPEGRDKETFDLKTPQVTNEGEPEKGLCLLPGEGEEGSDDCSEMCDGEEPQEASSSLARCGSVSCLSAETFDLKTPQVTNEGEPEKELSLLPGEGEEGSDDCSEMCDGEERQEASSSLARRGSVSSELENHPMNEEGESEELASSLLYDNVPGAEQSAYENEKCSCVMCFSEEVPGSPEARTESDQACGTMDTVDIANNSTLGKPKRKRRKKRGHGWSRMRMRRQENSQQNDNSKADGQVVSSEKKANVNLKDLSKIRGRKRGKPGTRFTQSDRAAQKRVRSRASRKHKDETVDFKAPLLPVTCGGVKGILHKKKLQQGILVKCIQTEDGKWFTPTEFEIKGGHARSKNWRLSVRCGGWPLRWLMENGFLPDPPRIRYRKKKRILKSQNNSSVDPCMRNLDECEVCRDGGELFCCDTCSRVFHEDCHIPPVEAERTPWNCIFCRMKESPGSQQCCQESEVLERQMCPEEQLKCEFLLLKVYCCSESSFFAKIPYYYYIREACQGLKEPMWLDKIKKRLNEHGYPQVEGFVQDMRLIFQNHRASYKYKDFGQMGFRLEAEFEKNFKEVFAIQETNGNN
UniProt Q13217: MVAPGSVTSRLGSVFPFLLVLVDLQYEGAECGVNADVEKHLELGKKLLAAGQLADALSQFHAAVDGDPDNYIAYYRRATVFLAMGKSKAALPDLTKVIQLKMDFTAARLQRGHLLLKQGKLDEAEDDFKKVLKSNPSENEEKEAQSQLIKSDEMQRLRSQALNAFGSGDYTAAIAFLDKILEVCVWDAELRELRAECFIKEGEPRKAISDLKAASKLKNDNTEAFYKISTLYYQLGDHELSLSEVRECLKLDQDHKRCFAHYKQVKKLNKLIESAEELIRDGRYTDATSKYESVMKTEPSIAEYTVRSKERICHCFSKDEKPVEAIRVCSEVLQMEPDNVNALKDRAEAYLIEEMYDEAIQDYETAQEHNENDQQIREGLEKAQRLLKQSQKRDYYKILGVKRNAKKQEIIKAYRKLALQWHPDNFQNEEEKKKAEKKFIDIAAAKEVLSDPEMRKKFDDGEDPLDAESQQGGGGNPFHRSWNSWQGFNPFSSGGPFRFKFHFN
UniProt Q13541: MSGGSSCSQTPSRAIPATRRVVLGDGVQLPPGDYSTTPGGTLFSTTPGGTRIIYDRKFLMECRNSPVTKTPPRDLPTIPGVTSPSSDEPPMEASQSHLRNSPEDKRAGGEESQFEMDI
UniProt Q13191, whole entry: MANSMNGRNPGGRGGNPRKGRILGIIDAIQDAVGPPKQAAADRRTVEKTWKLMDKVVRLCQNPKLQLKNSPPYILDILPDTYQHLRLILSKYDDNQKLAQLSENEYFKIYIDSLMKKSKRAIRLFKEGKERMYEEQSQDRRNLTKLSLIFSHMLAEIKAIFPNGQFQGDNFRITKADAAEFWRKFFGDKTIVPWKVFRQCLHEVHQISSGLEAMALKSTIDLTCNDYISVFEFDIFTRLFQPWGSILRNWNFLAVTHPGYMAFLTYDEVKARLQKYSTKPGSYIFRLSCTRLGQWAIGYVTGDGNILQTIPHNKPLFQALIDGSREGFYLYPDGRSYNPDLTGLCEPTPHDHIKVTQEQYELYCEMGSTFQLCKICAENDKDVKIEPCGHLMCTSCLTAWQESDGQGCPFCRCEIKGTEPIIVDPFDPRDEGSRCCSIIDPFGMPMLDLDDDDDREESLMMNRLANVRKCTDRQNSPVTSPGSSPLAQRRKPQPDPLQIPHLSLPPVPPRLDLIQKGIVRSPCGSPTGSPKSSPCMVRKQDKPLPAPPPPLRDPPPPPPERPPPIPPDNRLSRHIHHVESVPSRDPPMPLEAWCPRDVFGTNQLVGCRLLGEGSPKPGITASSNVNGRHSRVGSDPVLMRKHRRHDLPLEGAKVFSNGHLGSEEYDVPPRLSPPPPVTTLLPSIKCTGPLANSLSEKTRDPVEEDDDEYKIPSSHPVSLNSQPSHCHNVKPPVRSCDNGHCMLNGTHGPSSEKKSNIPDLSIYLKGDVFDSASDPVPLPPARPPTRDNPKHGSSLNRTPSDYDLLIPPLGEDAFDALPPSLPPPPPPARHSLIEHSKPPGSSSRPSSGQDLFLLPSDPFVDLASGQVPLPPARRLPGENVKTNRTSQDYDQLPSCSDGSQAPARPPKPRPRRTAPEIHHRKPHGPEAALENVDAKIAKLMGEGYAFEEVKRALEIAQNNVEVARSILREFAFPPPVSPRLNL
UniProt Q13361: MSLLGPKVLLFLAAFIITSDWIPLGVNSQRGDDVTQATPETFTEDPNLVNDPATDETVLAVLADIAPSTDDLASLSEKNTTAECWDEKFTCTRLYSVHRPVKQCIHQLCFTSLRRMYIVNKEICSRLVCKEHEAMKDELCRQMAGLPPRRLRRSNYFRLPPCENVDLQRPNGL
UniProt Q13435: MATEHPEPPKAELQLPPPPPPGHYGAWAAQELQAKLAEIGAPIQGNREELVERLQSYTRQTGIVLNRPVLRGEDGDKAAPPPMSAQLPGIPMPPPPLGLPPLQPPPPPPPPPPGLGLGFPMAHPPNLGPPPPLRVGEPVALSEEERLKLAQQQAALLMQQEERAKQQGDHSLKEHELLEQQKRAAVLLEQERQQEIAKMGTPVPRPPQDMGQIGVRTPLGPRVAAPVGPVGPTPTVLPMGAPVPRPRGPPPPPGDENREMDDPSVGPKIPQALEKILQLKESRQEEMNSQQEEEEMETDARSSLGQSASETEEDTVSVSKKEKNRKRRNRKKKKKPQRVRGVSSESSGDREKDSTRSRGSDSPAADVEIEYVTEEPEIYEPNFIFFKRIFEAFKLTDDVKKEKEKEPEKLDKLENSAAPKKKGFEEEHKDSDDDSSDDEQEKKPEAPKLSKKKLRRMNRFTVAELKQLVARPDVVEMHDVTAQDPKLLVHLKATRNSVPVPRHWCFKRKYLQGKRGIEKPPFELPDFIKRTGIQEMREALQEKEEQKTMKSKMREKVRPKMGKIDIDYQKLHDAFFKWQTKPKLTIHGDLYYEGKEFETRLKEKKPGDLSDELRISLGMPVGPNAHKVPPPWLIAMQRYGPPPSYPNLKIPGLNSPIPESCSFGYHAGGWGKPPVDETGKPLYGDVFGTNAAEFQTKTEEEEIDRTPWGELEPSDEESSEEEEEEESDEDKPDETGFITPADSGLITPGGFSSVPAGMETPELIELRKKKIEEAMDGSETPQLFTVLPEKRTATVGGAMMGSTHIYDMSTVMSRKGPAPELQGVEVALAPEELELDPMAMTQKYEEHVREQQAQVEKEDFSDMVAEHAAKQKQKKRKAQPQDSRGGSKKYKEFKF
UniProt Q14249: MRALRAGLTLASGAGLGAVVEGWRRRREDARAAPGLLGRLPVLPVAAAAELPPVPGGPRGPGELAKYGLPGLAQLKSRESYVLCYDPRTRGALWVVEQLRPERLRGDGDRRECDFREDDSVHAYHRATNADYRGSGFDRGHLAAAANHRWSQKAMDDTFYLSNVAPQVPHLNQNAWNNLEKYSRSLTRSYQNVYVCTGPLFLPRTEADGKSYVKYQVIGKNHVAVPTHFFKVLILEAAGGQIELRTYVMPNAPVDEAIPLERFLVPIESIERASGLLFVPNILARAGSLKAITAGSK
UniProt Q14696: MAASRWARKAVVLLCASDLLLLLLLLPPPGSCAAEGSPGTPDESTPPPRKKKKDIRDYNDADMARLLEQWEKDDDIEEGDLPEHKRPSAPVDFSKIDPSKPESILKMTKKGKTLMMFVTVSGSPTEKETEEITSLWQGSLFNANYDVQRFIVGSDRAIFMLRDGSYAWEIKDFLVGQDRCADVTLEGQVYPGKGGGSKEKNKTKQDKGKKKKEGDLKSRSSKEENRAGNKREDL

Each target was assayed with Cc1nc(Nc2ncc(C(=O)Nc3c(C)cccc3Cl)s2)cc(N2CCN(CCO)CC2)n1 [dasatinib] (assay: log2 fold change of tryptic peptide abundance, ligand vs vehicle (limited proteolysis) (log2 ratio); higher = more trypsin-susceptible (destabilized)). Details: ligand concentration: 5 uM; sample: K562 cleared lysate.

| Target | log2 fold change |
| --- | --- |
| MTMR1 (peptide sequence: GSSPSHSATSVHTSV, peptide start residue: 651) (UniProt Q13613) | 0.056 |
| DDX10 (peptide sequence: SQADKVIEPR, peptide start residue: 527) (UniProt Q13206) | -0.213 |
| FAM53B (peptide sequence: YSNGFSTMQR, peptide start residue: 155) (UniProt Q14153) | 0.322 |
| TARBP1 (peptide sequence: KIIPWNSR, peptide start residue: 1433) (UniProt Q13395) | -0.394 |
| KLF1 (peptide sequence: QAAHTCAHPGCGK, peptide start residue: 276) (UniProt Q13351) | 0.0106 |
| MTMR2 (peptide sequence: KVEELQR, peptide start residue: 610) (UniProt Q13614) | -0.265 |
| MDC1 (peptide sequence: EGAQVPTGR, peptide start residue: 664) (UniProt Q14676) | 0.16 |
| DRAP1 (peptide sequence: KIMQTDEEIGK, peptide start residue: 19) (UniProt Q14919) | -0.186 |
| ALKBH1 (peptide sequence: LYSQKPNVCNLDK, peptide start residue: 121) (UniProt Q13686) | -0.404 |
| POLA2 (peptide sequence: SVILEGDREHSSGAQIPVDLSELK, peptide start residue: 269) (UniProt Q14181) | 0.292 |
| UniProt Q13342 (peptide sequence: KHKDETVDFK, peptide start residue: 577) | -0.136 |
| DNAJC3 (peptide sequence: ICHCFSK, peptide start residue: 312) (UniProt Q13217) | -0.387 |
| GTF2H2 (peptide sequence: ICGLTLVSAPHLAR, peptide start residue: 307) (UniProt Q13888) | -0.538 |
| MTX1 (peptide sequence: NYVEVTRK, peptide start residue: 267) (UniProt Q13505) | 0.492 |
| EIF4EBP1 (peptide sequence: KFLMECR, peptide start residue: 57) (UniProt Q13541) | -0.0935 |
| CBLB (peptide sequence: CTGPLANSLSEK, peptide start residue: 686) (UniProt Q13191) | -0.308 |
| SNW1 (peptide sequence: GPPSPPAPVMHSPSR, peptide start residue: 221) (UniProt Q13573) | 0.399 |
| GIT2 (peptide sequence: QGGHHELAER, peptide start residue: 209) (UniProt Q14161) | -0.602 |
| IK (peptide sequence: ISAIIEKR, peptide start residue: 535) (UniProt Q13123) | 0.432 |

| Target | log2 fold change |
| --- | --- |
| UniProt Q13243 (peptide sequence: GFGFVEFEDPR, peptide start residue: 38) | -0.125 |
| ZBTB17 (peptide sequence: AFTQASSLIAHVR, peptide start residue: 538) (UniProt Q13105) | 0.369 |
| UniProt Q13361 (peptide sequence: LVCKEHEAMKDELCR, peptide start residue: 127) | 0.397 |
| TNFAIP1 (peptide sequence: QLGHQSTHRD, peptide start residue: 307) (UniProt Q13829) | 0.635 |
| PPFIA1 (peptide sequence: CSLLEEELGATHK, peptide start residue: 189) (UniProt Q13136) | -0.163 |
| SF3B2 (peptide sequence: EHELLEQQKR, peptide start residue: 174) (UniProt Q13435) | 0.122 |
| GOLGB1 (peptide sequence: TLKEQLNLLSR, peptide start residue: 930) (UniProt Q14789) | -0.495 |
| MAP7 (peptide sequence: PASAISGQNNNHSGNKPDPPPVLR, peptide start residue: 39) (UniProt Q14244) | 0.381 |
| ENDOG (peptide sequence: AGSLKAITAGSK, peptide start residue: 286) (UniProt Q14249) | 0.534 |
| UBAP2L (peptide sequence: IDLAVLLGK, peptide start residue: 282) (UniProt Q14157) | -0.201 |
| IDI1 (peptide sequence: PEINTNHLDK, peptide start residue: 2) (UniProt Q13907) | -0.0833 |
| GOLGA4 (peptide sequence: NKPTELLEENTEEK, peptide start residue: 1894) (UniProt Q13439) | 0.271 |
| FADD (peptide sequence: NTEKENATVAHLVGALR, peptide start residue: 150) (UniProt Q13158) | 0.0815 |
| NUMA1 (peptide sequence: YVQELAAVRADAETR, peptide start residue: 1476) (UniProt Q14980) | -0.468 |
| CTBP1 (peptide sequence: IGSGFDNIDIK, peptide start residue: 98) (UniProt Q13363) | -0.102 |
| UniProt Q14696 (peptide sequence: LLEQWEKDDDIEEGDLPEHK, peptide start residue: 66) | 0.0485 |
| TTLL4 (peptide sequence: MAPEHVTAQK, peptide start residue: 969) (UniProt Q14679) | 0.707 |
| SPCS2 (peptide sequence: SGLLDKWK, peptide start residue: 33) (UniProt Q15005) | 0.0593 |

An excerpt of these results, tab-delimited:
Target	log2 fold change
NUMA1 (peptide sequence: YVQELAAVRADAETR, peptide start residue: 1476) (UniProt Q14980)	-0.468
CTBP1 (peptide sequence: IGSGFDNIDIK, peptide start residue: 98) (UniProt Q13363)	-0.102
